Drawing on patent US20150218213A1, “INHIBITORS OF ALPHA6 INTEGRIN/E-CADHERIN COMPLEX” (Università degli Studi di Torino, priority 2012, published 2015), this text covers binding for one molecule.

Chains of the proteins cited; added tags and fusions are not shown. Lines headed by an entry give the natural chain unless they say otherwise; changes in a name come on top.
UniProt P16144: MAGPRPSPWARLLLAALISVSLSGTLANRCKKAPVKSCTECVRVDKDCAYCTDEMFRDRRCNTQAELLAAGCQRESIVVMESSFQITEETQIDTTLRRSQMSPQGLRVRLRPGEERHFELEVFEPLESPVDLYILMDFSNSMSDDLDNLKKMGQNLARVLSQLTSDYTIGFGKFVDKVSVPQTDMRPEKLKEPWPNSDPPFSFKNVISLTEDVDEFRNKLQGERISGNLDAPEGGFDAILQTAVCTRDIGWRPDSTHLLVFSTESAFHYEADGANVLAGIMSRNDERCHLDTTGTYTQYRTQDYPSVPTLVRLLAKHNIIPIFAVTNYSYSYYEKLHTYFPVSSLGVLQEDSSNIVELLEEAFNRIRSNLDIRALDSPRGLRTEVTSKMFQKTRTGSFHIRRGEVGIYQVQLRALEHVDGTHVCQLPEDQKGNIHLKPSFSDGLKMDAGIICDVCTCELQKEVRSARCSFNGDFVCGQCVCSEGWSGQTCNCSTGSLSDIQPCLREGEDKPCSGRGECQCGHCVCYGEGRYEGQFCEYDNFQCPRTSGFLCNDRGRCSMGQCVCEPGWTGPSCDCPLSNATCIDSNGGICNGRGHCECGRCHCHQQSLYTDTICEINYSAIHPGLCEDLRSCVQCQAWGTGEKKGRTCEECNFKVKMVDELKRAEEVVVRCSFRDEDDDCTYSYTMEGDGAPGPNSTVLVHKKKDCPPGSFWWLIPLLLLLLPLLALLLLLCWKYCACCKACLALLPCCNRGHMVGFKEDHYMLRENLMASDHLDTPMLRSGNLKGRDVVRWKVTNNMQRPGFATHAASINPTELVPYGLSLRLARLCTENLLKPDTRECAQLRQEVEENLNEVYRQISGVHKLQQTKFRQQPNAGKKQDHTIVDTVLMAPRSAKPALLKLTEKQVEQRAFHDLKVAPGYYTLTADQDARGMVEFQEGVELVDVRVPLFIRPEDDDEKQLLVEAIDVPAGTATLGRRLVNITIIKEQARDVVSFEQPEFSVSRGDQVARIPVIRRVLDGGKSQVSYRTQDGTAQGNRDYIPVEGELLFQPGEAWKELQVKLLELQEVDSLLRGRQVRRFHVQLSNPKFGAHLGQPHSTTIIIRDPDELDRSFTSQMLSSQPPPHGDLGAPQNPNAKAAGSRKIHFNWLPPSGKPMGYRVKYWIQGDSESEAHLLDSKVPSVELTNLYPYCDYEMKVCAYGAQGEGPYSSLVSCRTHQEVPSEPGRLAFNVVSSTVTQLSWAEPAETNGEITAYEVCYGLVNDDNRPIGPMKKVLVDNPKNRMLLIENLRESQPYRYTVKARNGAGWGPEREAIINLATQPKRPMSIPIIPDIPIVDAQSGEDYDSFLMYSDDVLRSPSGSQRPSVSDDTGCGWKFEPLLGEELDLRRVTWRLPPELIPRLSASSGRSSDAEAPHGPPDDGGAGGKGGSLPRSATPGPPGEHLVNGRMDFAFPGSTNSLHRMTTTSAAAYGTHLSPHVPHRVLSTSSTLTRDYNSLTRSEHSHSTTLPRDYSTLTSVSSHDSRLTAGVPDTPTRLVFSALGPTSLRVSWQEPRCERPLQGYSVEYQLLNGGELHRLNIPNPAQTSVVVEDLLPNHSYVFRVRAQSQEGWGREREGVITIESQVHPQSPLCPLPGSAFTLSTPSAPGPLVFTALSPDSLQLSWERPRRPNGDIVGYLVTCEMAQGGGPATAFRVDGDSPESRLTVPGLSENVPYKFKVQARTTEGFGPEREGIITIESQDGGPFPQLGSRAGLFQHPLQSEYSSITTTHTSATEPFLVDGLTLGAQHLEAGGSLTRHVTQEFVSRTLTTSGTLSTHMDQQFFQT

No constants are given. Whether binding was seen depends on the method and setting. Some binding calls cover weakened binding; strength is not graded here.

The target in experiment [1] is α6β4 integrin (human) (UniProt P16144). The experiment is described as follows: affinity column fractions, phage binding assay and ELISA for integrin subunits.
The target is the same in experiment [2]. Description: affinity column of immobilised peptide loaded with lysates of human liver metastases, elution with peptide, ELISA for integrin subunits. Background: In an ELISA, binding on a coated surface is turned into a signal by an enzyme label.

B1: … synthetic peptide (peptide)
peptide: CGIYRLRSC
As to B1, the binding entry in experiment [1] and in experiment [2] was “binds” throughout.
